Out of some 390,000 compounds screened, about 610 (0.16%) were called active. Inconclusive means that the source gave no clear call. Such entries were picked first, then a sample of the others. Calls follow the shape of the dose curve; as a rule, active = well fitted inhibition curve with a large enough effect; inconclusive = small, poorly fitted or top-dose-only effect, or effect the other way, or another doubt; inactive = no such curve, though single readings can be large or run the other way. Potencies beside an inconclusive call are fits to weak or partial responses and may not hold up.
Assay: Nrf2 qHTS screen for inhibitors: counterscreen for cytotoxicity
Conditions: A549 ARE-Fluc cells, CellTiter-Fluor viability, 18-24 h; activity change, negative = cytotoxicity: at 46 µM (top of the series)
How it was run: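 A549 ARE_Fluc cells in 5% FBS OPTI-MEM were exposed to compounds in concentration-response for 18-24 h at 37 deg C. Viability was read by CellTiter-Fluor fluorescence (Ex 405/Em 525) after 30 min, before the luciferase read.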
% is scaled to controls: 0 for no effect and ±100 for the full control effect; potency is read from the fitted curve at half-maximal effect.

SMILES	activity change, negative = cytotoxicity	Potency
Cc1nn2c(=O)cc(COC(=O)c3ccc(NC(=O)CCc4ccccc4)cc3)nc2s1	inactive: 2.53%	–
O=C(CN1C(=O)c2cccnc2Oc2ccc(Cl)cc21)NCCCN1CCCCC1	inactive: -8.74%	–
CC(=O)Nc1ccc(S(=O)(=O)NCC(=O)OCC(=O)Nc2sccc2C(N)=O)cc1	–	inconclusive: 29.1 µM [activator, partial curve, poor fit]
CCOC(=O)c1sc(NC(=O)CSc2nnc(Cc3ccccc3)o2)c(C(=O)OCC)c1C	–	inconclusive: 11.6 µM [falling, partial curve, poor fit]
Cc1cccn2c(=O)c3cc(C(=O)NCC4CCCO4)c(=N)n(Cc4ccc(F)cc4)c3nc12 (stereo not drawn)	–	inconclusive: 18.4 µM [activator, single point]
CC(C)CNC(=O)c1cc([N+](=O)[O-])ccc1N1CCOCC1	inactive: -9.44%	–
CC1(c2ccccc2)NC(=O)N(CC(=O)Nc2cc(C(F)(F)F)ccc2N2CCCCC2)C1=O (stereo not drawn)	–	inconclusive: 20.6 µM [falling, single point]
COc1ccc(Cn2c(SCc3ccc(C(=O)NC4CCCCC4)cc3)nc3cccnc32)cc1	–	inconclusive: 18.4 µM [falling, single point]
O=C(CCc1nnc(CCCc2ccccc2)o1)NC(C1CC1)C1CC1	inactive: -1.63%	–
COc1cccc(N=Nc2c(N)[nH]n3c(=O)cc(-c4ccccc4)nc23)c1	–	inconclusive: 23.1 µM [falling, single point]
COc1ccc(C)cc1Nc1nc2c(S(=O)(=O)c3cc(C)ccc3C)nnn2c2ccsc12	inactive: 10.3%	–
CCOC(=O)/C=C1\SCC(=O)N1CC(=O)NC1CCCCC1	–	inconclusive: 6.51 µM [activator, single point]
CN(C)c1ccc(C(=O)Nc2sc(Nc3ccccc3)nc2C(N)=O)cc1	–	inconclusive: 32.6 µM [falling, partial curve, poor fit]
O=C(CN1C(=O)/C(=C\c2ccccc2Cl)Sc2ccccc21)NCCCN1CCOCC1	–	inconclusive: 29.1 µM [falling, single point]
COc1ccc(NC(=O)Nc2cccc3c2O[C@H](CN(C)C(=O)Nc2ccc(OC)cc2)[C@@H](C)CN([C@H](C)CO)C3=O)cc1	inactive: -3.54%	–
CC1CCN(CCCCOc2cccc(C(C)C)c2)CC1	–	inconclusive: 18.4 µM [falling, partial curve, poor fit]
CN(C)/[N+]([O-])=N/Oc1cc(ON=[N+]([O-])N2CCN(c3ncccn3)CC2)c([N+](=O)[O-])cc1[N+](=O)[O-]	–	inconclusive: 20.6 µM [falling, partial curve, poor fit]
CCOc1ccccc1C(=O)NCC(=O)NCCCc1ccccc1	inactive: 0.417%	–
CCCC1=C(C(=O)OCC)C(c2cc(Cl)cc(OC)c2OCc2ccccc2)NC(=O)N1 (stereo not drawn)	–	inconclusive: 25.9 µM [falling, partial curve, poor fit]
CCCN(CCC)CCNC(=O)CS(=O)Cc1nc(-c2ccc(OC)c(OC)c2)oc1C (stereo not drawn)	inactive: 0.816%	–
COc1cc(/C=C(\C#N)C(=O)NC(C)C)cc(Cl)c1O	–	inconclusive: 18.4 µM [falling, partial curve, poor fit]
Cc1ccccc1NC(=O)c1cc2ccccn2n1	–	inconclusive: 18.4 µM [activator, partial curve, poor fit]
COc1ccc(NC(=O)Cn2nnnc2-c2ccccc2F)c(C)c1	inactive: 16.7%	–

SMILES	activity change, negative = cytotoxicity	Potency
COc1cccc(CCn2c(N)cc(=O)[nH]c2=S)c1OC	inactive: 9.15%	–
CCOc1cc(CNCCSc2nnnn2C)ccc1OCc1ccc(Cl)cc1Cl	–	inconclusive: 23.1 µM [falling, partial curve, poor fit]
c1ccc(OCc2nnc3sc(-c4cccs4)nn23)cc1	–	inconclusive: 29.1 µM [falling, single point]
O=C(CNC(=O)c1ccc(-c2ccccc2)cc1)OC(C(=O)Nc1cc(C(F)(F)F)ccc1Cl)c1ccccc1 (stereo not drawn)	inactive: 3.71%	–
Cc1ccccc1N1CC(C(=O)N2CCCCCC2)CC1=O (stereo not drawn)	–	inconclusive: 5.17 µM [falling, partial curve, poor fit]
C[C@@H]1CN([C@@H](C)CO)C(=O)c2cccc(NC(=O)C3CCCCC3)c2O[C@@H]1CN(C)Cc1ccc(Cl)c(Cl)c1	–	inconclusive: 29.1 µM [falling, partial curve, poor fit]
CCN(C(C)=O)c1cnc(C=NNC(N)=S)c2ccccc12	–	inconclusive: 29.1 µM [falling, single point]
O=C(OCc1ccccc1F)c1ccc2c(c1)-c1ccccc1C2=O	inactive: 13.1%	–
CCOc1ccc2nc(NCCNC(=O)CC)c(C#N)cc2c1	–	inconclusive: 16.4 µM [activator, partial curve]
N=C1C=CC(=C(c2ccc(N)cc2)c2ccc(N)cc2)C=C1	–	active: 9.2 µM
COc1cc(C(=O)Nc2ccc3c(c2)CCN3C(C)=O)cc(OC)c1OC	–	inconclusive: 23.1 µM [falling, partial curve, poor fit]
CCCCN(CCCC)Cc1cc2ccccc2c2c1COC2	–	inconclusive: 13 µM [activator, partial curve, poor fit]
CC1Cc2ccccc2N1C(=O)CSc1nc2ccccc2o1 (stereo not drawn)	–	inconclusive: 16.4 µM [activator, partial curve, poor fit]
COc1ccc(/C=C/C(=O)c2cc(Br)ccc(=O)c2O)cc1	–	inconclusive: 18.4 µM [falling, single point]
CC(=O)Nc1cccc(-c2cnc(N)c(C(=O)c3cccnc3)n2)c1	–	inconclusive: 16.4 µM [falling, single point]
COc1cc(C=CC(=O)c2cc(OC)c(OC)c(OC)c2)cc(OC)c1OC	–	inconclusive: 18.4 µM [falling, single point]
O=C(O)c1cc(O)c2c(c1)[C@@H]([C@H]1c3cc(C(=O)O)cc(O)c3C(=O)c3c(O[C@@H]4O[C@H](CO)[C@@H](O)[C@H](O)[C@H]4O)cccc31)c1cccc(O[C@@H]3O[C@H](CO)[C@@H](O)[C@H](O)[C@H]3O)c1C2=O	inactive: -23.3%	–
COc1ccc(CCNC(=O)c2cc([N+](=O)[O-])ccc2N2CCOCC2)cc1	–	inconclusive: 23.1 µM [falling, partial curve, poor fit]
O=C1C=CC(=O)N1c1ccc2c(c1)Cc1cc(F)ccc1-2	inactive: -3.27%	–
CCC(=O)Oc1ccc(-c2cnc3ccccc3n2)cc1	–	inconclusive: 6.51 µM [activator, single point]
CCCCN(CC)C(=O)CCn1c(=O)c2cccn2c2cccnc21	inactive: 6%	–
Clc1ccc2nc(N3CCCCC3)[nH]c2c1	inactive: -1.72%	–
Cc1cc(NC(=O)CSc2nc(-c3ccco3)cc(C(F)(F)F)n2)no1	–	inconclusive: 1.3 µM [falling, full curve, poor fit]

Some of the entries so far, as a markdown table.

| SMILES | activity change, negative = cytotoxicity | Potency |
| --- | --- | --- |
| COc1ccc(C)cc1Nc1nc2c(S(=O)(=O)c3cc(C)ccc3C)nnn2c2ccsc12 | inactive: 10.3% | – |
| CCOC(=O)/C=C1\SCC(=O)N1CC(=O)NC1CCCCC1 | – | inconclusive: 6.51 µM [activator, single point] |
| CN(C)c1ccc(C(=O)Nc2sc(Nc3ccccc3)nc2C(N)=O)cc1 | – | inconclusive: 32.6 µM [falling, partial curve, poor fit] |
| O=C(CN1C(=O)/C(=C\c2ccccc2Cl)Sc2ccccc21)NCCCN1CCOCC1 | – | inconclusive: 29.1 µM [falling, single point] |
| COc1ccc(NC(=O)Nc2cccc3c2O[C@H](CN(C)C(=O)Nc2ccc(OC)cc2)[C@@H](C)CN([C@H](C)CO)C3=O)cc1 | inactive: -3.54% | – |
| CC1CCN(CCCCOc2cccc(C(C)C)c2)CC1 | – | inconclusive: 18.4 µM [falling, partial curve, poor fit] |
| CN(C)/[N+]([O-])=N/Oc1cc(ON=[N+]([O-])N2CCN(c3ncccn3)CC2)c([N+](=O)[O-])cc1[N+](=O)[O-] | – | inconclusive: 20.6 µM [falling, partial curve, poor fit] |
| CCOc1ccccc1C(=O)NCC(=O)NCCCc1ccccc1 | inactive: 0.417% | – |
| CCCC1=C(C(=O)OCC)C(c2cc(Cl)cc(OC)c2OCc2ccccc2)NC(=O)N1 (stereo not drawn) | – | inconclusive: 25.9 µM [falling, partial curve, poor fit] |
| CCCN(CCC)CCNC(=O)CS(=O)Cc1nc(-c2ccc(OC)c(OC)c2)oc1C (stereo not drawn) | inactive: 0.816% | – |
| COc1cc(/C=C(\C#N)C(=O)NC(C)C)cc(Cl)c1O | – | inconclusive: 18.4 µM [falling, partial curve, poor fit] |
| Cc1ccccc1NC(=O)c1cc2ccccn2n1 | – | inconclusive: 18.4 µM [activator, partial curve, poor fit] |
| COc1ccc(NC(=O)Cn2nnnc2-c2ccccc2F)c(C)c1 | inactive: 16.7% | – |
| COc1cccc(CCn2c(N)cc(=O)[nH]c2=S)c1OC | inactive: 9.15% | – |
| CCOc1cc(CNCCSc2nnnn2C)ccc1OCc1ccc(Cl)cc1Cl | – | inconclusive: 23.1 µM [falling, partial curve, poor fit] |
| c1ccc(OCc2nnc3sc(-c4cccs4)nn23)cc1 | – | inconclusive: 29.1 µM [falling, single point] |
| O=C(CNC(=O)c1ccc(-c2ccccc2)cc1)OC(C(=O)Nc1cc(C(F)(F)F)ccc1Cl)c1ccccc1 (stereo not drawn) | inactive: 3.71% | – |
| Cc1ccccc1N1CC(C(=O)N2CCCCCC2)CC1=O (stereo not drawn) | – | inconclusive: 5.17 µM [falling, partial curve, poor fit] |
| C[C@@H]1CN([C@@H](C)CO)C(=O)c2cccc(NC(=O)C3CCCCC3)c2O[C@@H]1CN(C)Cc1ccc(Cl)c(Cl)c1 | – | inconclusive: 29.1 µM [falling, partial curve, poor fit] |
| CCN(C(C)=O)c1cnc(C=NNC(N)=S)c2ccccc12 | – | inconclusive: 29.1 µM [falling, single point] |

Additional entries follow.

SMILES	activity change, negative = cytotoxicity	Potency
CC1=NC(C)(C)Cc2cc(C)c(C)cc21	inactive: -7.79%	–
CCOc1ccccc1C(=O)Nc1ccc2nc(N3CCN(c4ncccn4)CC3)cc(C)c2c1	–	inconclusive: 23.1 µM [falling, single point]
CCCCC(=O)NC(=S)Nc1ccc(Cl)c(C(=O)O)c1	inactive: -0.0408%	–
Cc1ccc(-c2cnn(-c3cccc(C(F)(F)F)c3)c2N)cc1	inactive: -9.9%	–
O=S(=O)(c1ccccc1)c1ncc(C(F)(F)F)cc1Cl	–	inconclusive: 20.6 µM [falling, single point]
COc1ccc(NC(=O)Cc2csc(COc3cccc(C)c3)n2)cc1OC	inactive: 2.13%	–
COc1ccc(N2CCN(c3nc(NCCc4ccc(OC)c(OC)c4)nc(OC)n3)CC2)cc1	inactive: -11.8% [at 1.84 µM]	–
CCCCN(C)CC(O)Cn1cc(/C=C/C(=O)c2ccc(OC)c(OC)c2)c2ccccc21 (stereo not drawn)	–	inconclusive: 29.1 µM [falling, single point]
O=C(NN=Cc1c(O)ccc2ccccc12)c1ccc2c(c1)OCO2	–	inconclusive: 14.6 µM [falling, partial curve]
O=C(c1ccco1)N1CCN(c2ccc(N3CCCCC3)nn2)CC1	inactive: 7.55%	–
Cc1c(C(=O)NCc2ccccc2)oc2ccc(S(=O)(=O)N3CCCC3)cc12	–	inconclusive: 29.1 µM [falling, partial curve, poor fit]
O=C(NCc1nnc2c3ccccc3c(-c3ccccc3)nn12)c1ccc(Cl)cc1	–	inconclusive: 18.4 µM [falling, single point]
N#C/C(=C(/O)COC(=O)c1ccc2c(c1)OCCO2)c1nc2ccccc2[nH]1	inactive: -15%	–
C[C@@H]1CN([C@H](C)CO)C(=O)c2cc(NC(=O)Nc3ccc(C(F)(F)F)cc3)ccc2O[C@H]1CN(C)S(=O)(=O)c1ccccc1	–	inconclusive: 11.6 µM [falling, partial curve, poor fit]
CC(C)(C)C(=O)NC(NC(=S)Nc1sc2c(c1C#N)CCCC2)C(Cl)(Cl)Cl (stereo not drawn)	–	inconclusive: 23.1 µM [falling, single point]
CN1C(=O)c2ccccc2Sc2ccc(NC(=O)Cc3c(F)cccc3Cl)cc21	inactive: -20.2%	–
COc1cccc(CN(C)Cc2nc(C3CC3)no2)c1	–	inconclusive: 11.6 µM [activator, partial curve, poor fit]
COc1ccc(-c2cc(C(=O)N(C)CC(=O)Nc3ccccc3Br)c3ccccc3n2)cc1OC	–	inconclusive: 32.6 µM [falling, partial curve, poor fit]
O=C1c2cccc(NCCCNCCO)c2C(=O)c2cccc(NCCCNCCO)c21	–	active: 18.4 µM
Cc1cc(=O)n(-c2ccccc2)n1C	inactive: -2.73%	–
O=C(CCN1C(=O)COc2ccccc21)NCCC1=CCCCC1	inactive: -5.09%	–
O=C(Nc1ccc(Cl)c(Cl)c1)Oc1ccc(NC(=O)c2ccco2)cc1	–	inconclusive: 16.4 µM [falling, partial curve, poor fit]
